Source: US20240336683A1 (published 2024)
Results are given in words; binding and its absence hold for the method and conditions named. Some entries that bind do so weakly or less than the wild type. Tags and fused reporters may be left off the sequences shown.

Biological target: T1, human Siglec 15-HIS tagged recombinant protein (human) (UniProt Q6ZMC9)
T1 sequence (looked up): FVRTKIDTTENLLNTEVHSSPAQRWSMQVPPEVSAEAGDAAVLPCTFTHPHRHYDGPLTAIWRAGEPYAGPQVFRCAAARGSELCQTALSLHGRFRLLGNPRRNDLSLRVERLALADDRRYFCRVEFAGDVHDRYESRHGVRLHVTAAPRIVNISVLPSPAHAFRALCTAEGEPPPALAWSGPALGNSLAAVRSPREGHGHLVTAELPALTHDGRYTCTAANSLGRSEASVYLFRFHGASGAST
Test: ELISA for the antibody in monkey plasma; His-tag human Siglec-15 as capture, anti-human IgG HRP

- binding: binds
B1: 2020EP032-H11 IgG (antibody, V domains shown)
VH: EVQLVESGGGLVKPGGSLRLSCAASGFTFSSYSMNWVRQAPGKGLEWVSSISSSSSYIYYADSVKGRFTISRDNAKNSLYLQMNSLRAEDTAVYYCARDYRGYSGQNYYGMDVWGQGTTVTVSS
VL: QSALTQPPSVSAAPRQKVTISCSGSSSNIGNNDVSWYQQLPGTVPKLLIYDNNKRPSGIPDRFSGSKSGTSASLGITGLQTGDEADYYCGVWDSSLSGYVFGTGTKVTVL
notes: IgG form expressed in ExpiHEK293-F cells; detected with anti-hFc; also called 2020EP32-H11; H11 mAb
